For part of these data: Negatives hold for the conditions tested. For part of these data: Construct, isoform or probe ends are uncertain for at least one entry. For part of these data: At least one verdict rests on a figure or table, not on a statement of the authors.
What was measured:
[1] = target: beta-lactoglobulin (bovine) (UniProt P02754); assay: ELASA (enzyme-linked aptasorbent assay); details: 0.001-1000 pg/ml coated protein, 50 nM aptamer; 5' biotin (5Biosg) on oligolinker S1; Sensor: 10 mM PBS pH 7.4, target incubated 10 min; aptamer folded in 1 mM MgCl2, 10 mM PBS (90 °C 5 min); commercial protein; label: biotin
[2] = target: Bovine serum albumin (BSA) (bovine) (UniProt P02769); assay: non-faradaic capacitive aptasensor; details: 100 fg/ml, negligible change; 5' biotin (5Biosg) on oligolinker S1; Sensor: 10 mM PBS pH 7.4, target incubated 10 min; aptamer folded in 1 mM MgCl2, 10 mM PBS (90 °C 5 min); commercial protein; label: biotin
Lysozyme = assay: non-faradaic capacitive aptasensor; details: 100 fg/ml, negligible change; 5' biotin (5Biosg) on oligolinker S1; Sensor: 10 mM PBS pH 7.4, target incubated 10 min; aptamer folded in 1 mM MgCl2, 10 mM PBS (90 °C 5 min); commercial protein; label: biotin

Sequences of proteins named here, by UniProt entry; tags and fusion partners are left off. Residues count along the entry.
UniProt P02754, 17-178: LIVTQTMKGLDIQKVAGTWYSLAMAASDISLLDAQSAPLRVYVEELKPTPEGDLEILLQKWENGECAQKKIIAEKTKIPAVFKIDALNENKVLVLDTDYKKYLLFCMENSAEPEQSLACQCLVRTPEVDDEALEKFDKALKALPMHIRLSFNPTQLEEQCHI
UniProt P02769, 25-607: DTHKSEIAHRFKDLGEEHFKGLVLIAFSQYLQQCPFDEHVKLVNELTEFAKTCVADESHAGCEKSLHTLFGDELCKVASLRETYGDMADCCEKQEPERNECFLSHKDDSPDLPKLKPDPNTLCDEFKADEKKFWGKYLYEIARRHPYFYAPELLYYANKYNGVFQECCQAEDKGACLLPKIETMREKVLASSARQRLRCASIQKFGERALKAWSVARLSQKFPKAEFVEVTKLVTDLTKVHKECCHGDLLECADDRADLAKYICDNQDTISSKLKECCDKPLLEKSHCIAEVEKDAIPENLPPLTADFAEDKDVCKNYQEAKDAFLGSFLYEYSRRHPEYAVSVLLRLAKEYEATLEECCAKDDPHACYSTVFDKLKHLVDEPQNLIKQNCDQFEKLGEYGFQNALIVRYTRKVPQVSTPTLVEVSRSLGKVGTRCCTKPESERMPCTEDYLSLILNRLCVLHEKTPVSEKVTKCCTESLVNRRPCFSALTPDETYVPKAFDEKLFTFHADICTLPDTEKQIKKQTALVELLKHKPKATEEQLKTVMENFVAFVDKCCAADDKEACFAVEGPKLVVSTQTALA

ATACCAGCTTATTCAATTCGACGATCGGACCGCAGTACCCACCCACCAGCCCCAACATCATGCCCATCCGTGTGTGAGATAGTAAGTGCAATCTAAAAAAAAAAAAAAAAAAAAAAAA / TTTTTTTTTTTTTTTTTTTT
binding result [1]: binds | binding result [2]: no binding | binding result (Lysozyme): no binding

— article PMC8531451
